These results are taken from PMC11701112.

Chains of the proteins cited; added tags and fusions are not shown.
UniProt Q9Y2T6: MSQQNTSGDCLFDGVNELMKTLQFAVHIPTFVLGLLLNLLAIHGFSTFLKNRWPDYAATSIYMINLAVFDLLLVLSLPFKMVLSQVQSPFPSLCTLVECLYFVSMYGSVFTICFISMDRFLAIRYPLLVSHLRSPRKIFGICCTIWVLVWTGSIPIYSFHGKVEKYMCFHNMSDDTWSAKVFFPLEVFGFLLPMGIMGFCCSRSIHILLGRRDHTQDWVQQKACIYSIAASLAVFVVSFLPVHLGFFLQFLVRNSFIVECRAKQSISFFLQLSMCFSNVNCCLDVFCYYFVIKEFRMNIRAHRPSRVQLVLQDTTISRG
UniProt P49407: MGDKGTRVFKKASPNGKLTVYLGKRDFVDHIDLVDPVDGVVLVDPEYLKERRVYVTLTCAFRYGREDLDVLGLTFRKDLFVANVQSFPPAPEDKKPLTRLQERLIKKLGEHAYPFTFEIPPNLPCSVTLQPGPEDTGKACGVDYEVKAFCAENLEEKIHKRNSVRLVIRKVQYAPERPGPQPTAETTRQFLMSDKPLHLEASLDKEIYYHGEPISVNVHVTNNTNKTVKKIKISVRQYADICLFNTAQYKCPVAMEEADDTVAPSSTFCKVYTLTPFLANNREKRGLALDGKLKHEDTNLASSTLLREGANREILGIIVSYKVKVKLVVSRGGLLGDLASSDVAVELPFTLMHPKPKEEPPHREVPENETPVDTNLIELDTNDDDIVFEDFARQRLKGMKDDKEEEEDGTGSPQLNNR

These are yes or no findings as the source states them, for the method shown. In cells and extracts the contact can be indirect. Some results given as binding are weak or reduced against the parent protein; the word gives no strength.

Test [1] concerns the target GPR55 (wild type, in the cell-based NanoBiT and BRET assays) (UniProt Q9Y2T6). Put plainly: split reporter; NanoBiT recruitment assay of β-arrestin 1 to GPR55, with LPI.
For test [2] the target is unchanged. The experiment in a line: condition: only with the ligands other than LPI (cells without the activating ligand LPI); split reporter; NanoBiT recruitment assay of β-arrestin 1 to GPR55, with the ligands other than LPI.

Take “β-arrestin 1 (from UniProt P49407 1-418)”: the binding entry in test [1] was “binds”; in test [2], “no binding”.
